Source: PubChem BioAssay AID1159578 (Peter MacCallum Cancer Centre, 2015)

- Test: 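siRNA pools altering how lymphatic endothelial cells close a scratch wound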 (primary screen)
- System: human lymphatic endothelial cells
- Reagent: siRNA pool against human genes, 40 nM
- Timing: 48 h after transfection
- Measurement: 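High-content imaging of dye-stained cells in a scratch assay measures filled wound area and nuclei per well; duplicate means given as ratio to mock and robust z-score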
- Scale: migration robust z-score: higher = faster migration into the scratch; nuclei per well: higher = more cells in the well
- Hit rule: 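Migration changed when robust z exceeds 2 or falls below -2 and mean nuclei number is at least 3300; otherwise not called changed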
- Meaning of the calls: active = migration changed; inactive = no migration change, or too few cells
Here is one part, drawn at random, of about 18,000 deposited reagents. In the full data, about 1,030 (5.7%) are marked active. 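Inactive calls also include pools with fewer than 3300 nuclei, whose migration was not assessed.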 Raw values vary from plate to plate and are shown uncorrected. A number with no mark means an inactive call. Further read-outs or replicates are left out here.

target	migration robust z-score	nuclei per well, duplicate mean
VAT1L (vesicle amine transport 1 like)	0.42	3760
MISP (mitotic spindle positioning)	-0.91	5265
IMPDH2 (inosine monophosphate dehydrogenase 2)	0.36	5426
BAG6 (BAG cochaperone 6)	0.56	6006
PARD6G (par-6 family cell polarity regulator gamma)	0.35	4822
BIK (BCL2 interacting killer)	-0.55	5852
KEAP1 (kelch like ECH associated protein 1)	-0.71	4574
TNR (tenascin R)	0	5700
STARD6 (StAR related lipid transfer domain containing 6)	0.55	5690
TBX15 (T-box transcription factor 15)	-0.1	6134
EIF2AK4 (eukaryotic translation initiation factor 2 alpha kinase 4)	-0.13	6592
C12orf42 (chromosome 12 open reading frame 42)	-0.9	5248
CT47A3 (cancer/testis antigen family 47 member A3)	-1.66	5304
SPTBN1 (spectrin beta, non-erythrocytic 1)	-1.02	6104
BPIFB4 (BPI fold containing family B member 4)	0.36	6601
EDARADD (EDAR associated via death domain)	0.77	5312
HDX (highly divergent homeobox)	1.31	5480
TRIML2 (tripartite motif family like 2)	1.57	6450
DDX18 (DEAD-box helicase 18)	0.7	6610
VPS16 (VPS16 core subunit of CORVET and HOPS complexes)	1.19	5052
EXOSC1 (exosome component 1)	-0.44	5762
PARP16 (poly(ADP-ribose) polymerase family member 16)	-0.57	5836
CREBRF (CREB3 regulatory factor)	-0.56	5714
MXRA8 (matrix remodeling associated 8)	-0.16	5448
CFAP299 (cilia and flagella associated protein 299)	-0.6	5557
HAND1 (heart and neural crest derivatives expressed 1)	-0.57	5922
ZCCHC24 (zinc finger CCHC-type containing 24)	1.32	5434
LRRC36 (leucine rich repeat containing 36)	-0.28	6081
TMEM129 (transmembrane protein 129, E3 ubiquitin ligase)	-0.28	6648
ERICH6 (glutamate rich 6)	-1.44	6282
KISS1 (KiSS-1 metastasis suppressor)	-0.33	4656
ARHGAP4 (Rho GTPase activating protein 4)	-0.2	6356
CNBD1 (cyclic nucleotide binding domain containing 1)	0.16	5017
SPRR3 (small proline rich protein 3)	0.44	6849
OTX2 (orthodenticle homeobox 2)	-0.58	6906
HSCB (HscB mitochondrial iron-sulfur cluster cochaperone)	-0.7	6008
KCNB1 (potassium voltage-gated channel subfamily B member 1)	-1.66	5452
USF2 (upstream transcription factor 2, c-fos interacting)	0.18	5254
PPP1R14D (protein phosphatase 1 regulatory inhibitor subunit 14D)	0.84	6478
PTBP3 (polypyrimidine tract binding protein 3)	-0.91	6432
CTRC (chymotrypsin C)	-0.24	5400
NALF2 (NALCN channel auxiliary factor 2)	-0.26	6000
DGUOK (deoxyguanosine kinase)	-0.72	4683
SAMD4A (sterile alpha motif domain containing 4A)	0.99	5916
MYLK3 (myosin light chain kinase 3)	0.03	5708
TBC1D16 (TBC1 domain family member 16)	0.62	5800
C15orf32 (chromosome 15 putative open reading frame 32)	0.57	5225
THEM4 (thioesterase superfamily member 4)	-0.52	5559
C14orf119 (chromosome 14 open reading frame 119)	0.26	7414
TRPM8	-1.01	5008
DMBX1 (diencephalon/mesencephalon homeobox 1)	0.25	5233
GEMIN6 (gem nuclear organelle associated protein 6)	0.06	5234
PATE1 (prostate and testis expressed 1)	0.98	6140
ACSM6 (acyl-CoA synthetase medium chain family member 6)	1.4	5702
MAP7 (microtubule associated protein 7)	-0.16	6366
IRX1 (iroquois homeobox 1)	-0.15	5763
CH25H (cholesterol 25-hydroxylase)	-0.1	5141

Single entries from above:
For “nuclei per well, duplicate mean”, OTX2 (orthodenticle homeobox 2) shows 6906
Entry of VPS16 (VPS16 core subunit of CORVET and HOPS complexes) in “nuclei per well, duplicate mean”: 5052
Under “nuclei per well, duplicate mean”, EDARADD (EDAR associated via death domain) reads 5312
